Results deposited as PubChem BioAssay AID504744 (Drosophila RNAi Screening Center, 2011).
Assay: 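Identify dsRNAs that increase or decrease phospho-dAkt after insulin treatment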 (primary screen). Cell system: Drosophila Kc167 cells. Reagent: long dsRNA against Drosophila genes, 250 ng dsRNA per well of a 384-well plate. Timing: 3 days of knock-down, then overnight serum-free starvation before stimulation. Conditions: bovine insulin at 387 nM for 10 minutes after 12 h without serum. Read-out: 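Per-well phospho-dAkt level from an in-cell fluorescent antibody stain, divided by a DNA-dye signal; log2 residuals turned into z-scores that take cell number into account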. Rule for the call: 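Under insulin, a gene counts as a hit if the average z-score of two replicates lies above 2.5 or below -2.5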.
The screen tested about 23,000 reagents; shown is a random part of those with a known target gene and a result. In the full data, 98 (0.43%) were called active. 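Only hit calls are given; the phospho-dAkt signals, z-scores and hit direction were not deposited.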 Reagent sequences are not shown.

Cipc [DRSC14898] → activity call = inactive
Cipc [DRSC14900] → activity call = inactive
Shawl [DRSC02209] → activity call = inactive
Shawl [DRSC02748] → activity call = inactive
Lmx1a [DRSC09726] → activity call = inactive
Lmx1a [DRSC10275] → activity call = inactive
TwdlK [DRSC16045] → activity call = inactive
pea [DRSC07120] → activity call = inactive
L (retired record) [DRSC05966] → activity call = inactive
L (retired record) [DRSC05967] → activity call = inactive
CG4629 [DRSC00659] → activity call = inactive
HisRS [DRSC19986] → activity call = inactive
Nse4 [DRSC02239] → activity call = inactive
CG10345 [DRSC14138] → activity call = inactive
PXo [DRSC09734] → activity call = inactive
Swt1 [DRSC20028] → activity call = inactive
asl [DRSC12319] → activity call = inactive
dup [DRSC07088] → activity call = inactive
fipi [DRSC00465] → activity call = inactive
CG34428 [DRSC10119] → activity call = inactive
CG14282 [DRSC14763] → activity call = inactive
CG8520 [DRSC07206] → activity call = inactive
Idgf4 [DRSC18675] → activity call = inactive
